Results are given in words; binding and its absence hold for the method and conditions named. Some results given as binding are weak or reduced against the parent protein; the word gives no strength. Sequences can lack the tags named with a protein.
Tests used:
[1] = target: T1, Full-length human MIF (macrophage migration inhibitory factor), Gal4 DNA-BD fusion in pGBKT7 (human) (UniProt P14174); test: two-hybrid; co-transformation / direct mating: coding regions in pGADT7 in Y2HGold expressing pGBKT7-MIF constructs, selective agar plates (DDO, DDO/X/A, QDO), 3-5 days at 30 °C
T1 sequence: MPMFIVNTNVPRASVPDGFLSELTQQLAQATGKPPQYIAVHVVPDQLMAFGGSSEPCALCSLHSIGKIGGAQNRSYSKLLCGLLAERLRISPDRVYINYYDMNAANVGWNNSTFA

Protein sequences, listed by entry. Tags and fused reporters are not part of them. Residues count along the entry.
UniProt Q92743, residues 288-480: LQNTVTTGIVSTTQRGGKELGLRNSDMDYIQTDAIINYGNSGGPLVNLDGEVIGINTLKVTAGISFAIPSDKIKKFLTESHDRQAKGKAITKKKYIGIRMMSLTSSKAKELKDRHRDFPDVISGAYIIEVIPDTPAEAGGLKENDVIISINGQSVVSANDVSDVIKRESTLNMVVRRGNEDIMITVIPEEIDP
Truncated HTRA1 construct containing the PDZ domain (Q92743, residues 365-467): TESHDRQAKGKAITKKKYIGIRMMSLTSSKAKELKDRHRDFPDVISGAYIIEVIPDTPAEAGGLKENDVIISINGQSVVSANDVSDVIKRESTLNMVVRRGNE

[2] = target: T1, Full-length human MIF (macrophage migration inhibitory factor), Gal4 DNA-BD fusion in pGBKT7 (human); test: two-hybrid; Matchmaker Gold Y2H screen: pre-transformed human fetal brain cDNA library in Y187 mated with Y2HGold expressing MIF as bait
[3] = target: T2, C-terminally truncated MIF, the first 38 amino acids (with the first alpha-helix), Gal4 DNA-BD fusion (human) (UniProt P14174); test: two-hybrid; co-transformation / direct mating: coding regions in pGADT7 in Y2HGold expressing pGBKT7-MIF constructs, selective agar plates (DDO, DDO/X/A, QDO), 3-5 days at 30 °C
T2 sequence: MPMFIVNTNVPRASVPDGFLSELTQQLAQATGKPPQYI

Substance: Truncated HTRA1 construct containing the PDZ domain (from UniProt Q92743 365-467) (domain or fragment)
- binding [1]: no binding

Substance: HTRA1 cDNA clone from the human fetal brain library: C-terminal 193 amino acids (part of the protease domain and the whole PDZ domain) (from UniProt Q92743 288-480) (domain or fragment)
- binding [2]: binds
- binding [3]: binds
- binding [1]: binds
